A weaker result is weaker than the reference pair of the same experiment. For some of these results: Construct, isoform or probe ends are uncertain for at least one entry. For some of these results: At least one verdict was read from the data and is not stated in words by the source.
Experiments:
[1] = molecular target: GRSF1 mutant (qRRM mutant) Q155A,W159A,E223A,R255A,Y259A,E320A,R406A,F410A,E470A (Homo sapiens) (UniProt Q12849); experiment: EMSA; conditions: 75 ug/ml heparin, EMSA: 5 nM RNA, 0-2560 nM protein, 10 mM Tris-HCl pH 8.0, 2.5 mM KCl, 30 mM NaCl, 1 mM EDTA, 0.2 mM DTT, 30 min at 30 C, 7% PAGE, recombinant protein, residues 118-480, protein details: N-terminal 6xHis-SUMO, cleaved by SUMO protease, label: 5'-32P
[2] = molecular target: GRSF1 wild type (Homo sapiens) (UniProt Q12849); experiment: EMSA; conditions: 75 ug/ml heparin, EMSA: 5 nM RNA, 0-2560 nM protein, 10 mM Tris-HCl pH 8.0, 2.5 mM KCl, 30 mM NaCl, 1 mM EDTA, 0.2 mM DTT, 30 min at 30 C, 7% PAGE, recombinant protein, residues 118-480, protein details: N-terminal 6xHis-SUMO, cleaved by SUMO protease, label: 5'-32P

Sequences of proteins named here, by UniProt entry; tags and fusion partners are left off. Residues count along the entry.
UniProt Q12849, 118-480 Q155A/W159A/E223A/R255A/Y259A/E320A/R406A/F410A/E470A: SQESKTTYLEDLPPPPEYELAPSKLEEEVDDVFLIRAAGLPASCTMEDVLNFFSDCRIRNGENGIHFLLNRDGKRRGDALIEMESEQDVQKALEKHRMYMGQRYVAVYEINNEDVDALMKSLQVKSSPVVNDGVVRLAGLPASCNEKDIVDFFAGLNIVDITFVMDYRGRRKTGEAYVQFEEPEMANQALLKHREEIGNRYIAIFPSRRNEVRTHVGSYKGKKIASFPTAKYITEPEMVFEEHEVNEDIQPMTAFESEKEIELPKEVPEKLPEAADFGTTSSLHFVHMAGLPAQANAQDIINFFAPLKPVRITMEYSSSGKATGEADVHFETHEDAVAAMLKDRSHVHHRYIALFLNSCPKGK
UniProt Q12849, 118-480: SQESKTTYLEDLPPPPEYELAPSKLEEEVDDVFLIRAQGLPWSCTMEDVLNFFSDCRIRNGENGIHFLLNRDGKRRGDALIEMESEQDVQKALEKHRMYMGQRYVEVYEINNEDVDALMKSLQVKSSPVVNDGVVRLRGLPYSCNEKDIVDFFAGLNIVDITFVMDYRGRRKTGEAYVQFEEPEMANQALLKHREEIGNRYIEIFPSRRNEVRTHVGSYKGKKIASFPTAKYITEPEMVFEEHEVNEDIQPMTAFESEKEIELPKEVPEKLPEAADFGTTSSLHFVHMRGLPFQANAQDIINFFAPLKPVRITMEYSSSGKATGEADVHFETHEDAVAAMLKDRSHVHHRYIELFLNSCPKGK

| Sequence | binding result [1] | binding result [2] |
| --- | --- | --- |
| GAAGCGGGGGAGGGGGGGUUUGGUGGAAAUUUU [Mito3] | binds more weakly | binds |
| GCGCUGUGACUAGUAUGUUGAGUCCUGUAAGUAGCAGAGUGAUAUUUGAUCACGAGAACGUCGUUACUAGCACCCA [tRNA-like mutant] | – | binds more weakly |
| GGGCUGUGACUAGUAUGUUGAGUCCUGUAAGUAGGAGAGUGAUAUUUGAUCAGGAGAACGUGGUUACUAGCACCCA [tRNA-like] | binds more weakly | – |
